PubChem BioAssay AID1224828 – NIAID, 2016

Aim: 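Find genes required for NF-kappaB p65 moving into the nucleus after LPS in mouse macrophages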 (primary screen)
System: mouse RAW264.7 G9 macrophage reporter cells (GFP-p65, Tnf promoter-mCherry)
Reagents: siRNA pool against mouse genes, 100 nM
Time to read-out: 2 days siRNA transfection, then 40 min LPS before fixation
Challenge: LPS (Salmonella minnesota R595) at 10 ng/ml
Detection: 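Imaged p65 nuclear translocation ratio, normalised to the plate median, converted to robust z-scores and averaged across two replicates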
Scale: p65 translocation robust z-score: higher = more nuclear NF-kappaB p65 after LPS than the plate median; nuclear/cytoplasmic p65 ratio: higher = more nuclear NF-kappaB p65
Rule for the call: 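Called active when z exceeds 3.3 or falls under -1.56 (median of Tlr4 controls), giving activity score of at least 50; no calls for control wells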
Calls: active = hit (p65 shift raised or lowered); inactive = no clear change
Shown is a random part of about 17,000 reagents tested. 762 of all reagents (4.5%) count as active. 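Active calls include both raised and lowered p65 entry, mostly lowered; wells with fewer than 50 cells lack a z-score.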 Raw values are not corrected between plates. Entries without a mark were called inactive.

| gene | p65 translocation robust z-score | nuclear/cytoplasmic p65 ratio, rep 1 | nuclear/cytoplasmic p65 ratio, rep 2 | low cell count flag |
| --- | --- | --- | --- | --- |
| Fgfbp3 (GeneID 72514) | – | 1.35 | 1.36 | fewer than 50 cells per well; well left out of scoring |
| Prpf31 (GeneID 68988) | 0.14 | 1.67 | 1.6 | enough cells to score |
| Pea15a (GeneID 18611) | -0.23 | 1.44 | 1.36 | enough cells to score |
| Oca2 (GeneID 18431) | 0.71 | 1.52 | 1.53 | enough cells to score |
| Ang3 (GeneID 11730) | 0.43 | 1.72 | 1.65 | enough cells to score |
| Mpl (GeneID 17480) | -0.26 | 1.4 | 1.32 | enough cells to score |
| Slc25a24 (GeneID 229731) | -0.46 | 1.31 | 1.23 | enough cells to score |
| Ndufa8 (GeneID 68375) | 0.13 | 1.84 | 1.58 | enough cells to score |
| Slc24a5 (GeneID 317750) | – | 1.47 | 1.42 | fewer than 50 cells per well; well left out of scoring |
| Cdc6 (GeneID 23834) | 0.51 | 1.57 | 1.41 | enough cells to score |
| Fem1al (GeneID 216622) | – | 1.09 | 1 | fewer than 50 cells per well; well left out of scoring |
| Tmc8 (GeneID 217356) | -1.46 | 1.01 | 1.41 | enough cells to score |
| Trpt1 (GeneID 107328) | – | 1.48 | 1.22 | fewer than 50 cells per well; well left out of scoring |
| Chmp3 (GeneID 66700) | -0.12 | 1.35 | 1.24 | enough cells to score |
| Fpr-rs7 (GeneID 321021) | -0.58 | 1.64 | 1.26 | enough cells to score |
| Anks3 (GeneID 72615) | – | 1.15 | 1.28 | fewer than 50 cells per well; well left out of scoring |
| T (GeneID 20997) | -1.88 (active) | 1.54 | 1.3 | enough cells to score |
| Msh3 (GeneID 17686) | 1.56 | 1.58 | 1.6 | enough cells to score |
| Pcdhb14 (GeneID 93885) | 0.67 | 1.54 | 1.32 | enough cells to score |
| Ccdc142 (GeneID 243510) | 0.24 | 1.61 | 1.56 | enough cells to score |
| Sh3tc1 (GeneID 231147) | – | 1.18 | 1.11 | fewer than 50 cells per well; well left out of scoring |
| Fbf1 (GeneID 217335) | -0.34 | 1.48 | 1.41 | enough cells to score |
| Klhl24 (GeneID 75785) | 3.03 | 1.47 | 1.81 | enough cells to score |
| Aste1 (GeneID 66595) | -0.34 | 1.49 | 1.4 | enough cells to score |
